Reference: PubChem BioAssay AID2685 (National Center for Advancing Translational Sciences (NCATS), 2010)
The other results are listed elsewhere or left out. Further columns of the screen follow, without active or inactive calls. The list favours compounds with an active or inconclusive main result. The note in brackets gives the kind of curve behind each potency; many fits are weak.

Test: qHTS Assay for Lipid Storage Modulators in Drosophila S3 Cells;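 as to cell number change: cells counted by Cell Tracker Red CMTPX staining in the red channel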
Conditions: BODIPY lipid droplet fluorescence, 18-24 h; for cell number change: measured here: cell count max response, cells fed with added oleic acid
Procedure, shortened: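 Laser-scanning cytometry quantifies lipid droplet accumulation (500–530 nm total intensity; droplet/cell object ratio) in oleic acid-fed (400 uM added) Drosophila S3 cells treated with a concentration series. 20 uM Triacsin C defined 100% inhibition.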

[1] = measured here: cell number channel AC50, cells fed with added oleic acid
[2] = measured here: lipid fluorescence (Fed channel) AC50, cells fed with added oleic acid

SMILES	cell number change [%]	AC50 [1]	AC50 [2]
O=C(CCNS(=O)(=O)c1ccccc1)N1CCN(c2ccccc2)CC1	36.6	32.6 µM [rising, partial curve, poor fit]	32.6 µM [rising, single point]
OC(c1ccccc1)c1nccn1Cc1ccccc1 (stereo unspecified)	-176		29.1 µM [falling, single point]
COC(=O)c1c(NC(=O)c2ccc(Br)s2)sc2c1CCC2	0.647		0.517 µM [rising, partial curve]
CCN(C(=O)COC(=O)COc1ccc2c(C)cc(=O)oc2c1)C1CCS(=O)(=O)C1 (stereo unspecified)			29.1 µM [falling, single point]
COc1cccc(NC(=O)CCc2nnc3ccc(NCc4ccco4)nn23)c1	-9.48		18.4 µM [falling, partial curve, poor fit]
CCCCN(C(=O)c1cc2ccccc2o1)c1c(N)n(CCCC)c(=O)[nH]c1=O	5.06		
O=C(NC(=S)Nc1ccc(S(=O)(=O)N2CCOCC2)cc1)c1ccccc1[N+](=O)[O-]	118	29.1 µM [rising, single point]	29.1 µM [rising, partial curve]
CN1CCN(c2ccc(NC(=O)c3ccc(Oc4ccccc4)cc3)cc2)CC1	0.952		
Cc1ccc(S(=O)(=O)N(C)c2ccc(C(=O)Nc3ccccc3C(=O)N3CCOCC3)cc2)cc1	-1.62		29.1 µM [rising, partial curve]
COC(=O)c1cc(C)sc1NC(=O)C1CC=CCC1C(=O)O (stereo unspecified)	60	14.6 µM [rising, single point]	0.058 µM [falling, full curve, poor fit]
COc1cccc(C(=O)Nc2ccc3c(c2)C(=O)c2ccccc2C3=O)c1	-29		10.3 µM [falling, partial curve, poor fit]
Cc1cccc(OCC(O)CN2CCN(CCN3C(=O)c4cccc5cccc(c45)C3=O)CC2)c1C (stereo unspecified)	-43.7		
CC1CCN(S(=O)(=O)c2cc(Cl)ccc2Br)CC1	0.86		
NC(=O)CC(NC(=O)c1ccccc1)c1ccc(N2CCN(c3ccccc3)CC2)c([N+](=O)[O-])c1 (stereo unspecified)	-15.2		
Cc1cccc2c(=O)cc(C)n(CC(=O)N3CCOCC3)c12		1.46 µM [rising, single point]	5.8 µM [rising, single point]
O=C(CCc1nc2ccccc2c(=O)[nH]1)OCc1nnc(-c2ccccc2)o1	3.97		18.4 µM [rising, partial curve, poor fit]
CC1C(=O)Nc2ccccc2N1C(=O)c1ccc(F)cc1 (stereo unspecified)	20.4		0.116 µM [rising, full curve, poor fit]
O=C(COC(=O)c1ccc(F)c(S(=O)(=O)N2CCOCC2)c1)c1ccc(Br)cc1	-10.3		
CCC(C(=O)c1ccc2ncccc2c1)c1ccccc1 (stereo unspecified)	0.481		5.8 µM [falling, partial curve]
O=C(CC1SC(=Nc2ccccc2)N(Cc2ccccn2)C1=O)Nc1ccc(Br)cc1 (stereo unspecified)	-2.15		18.4 µM [falling, single point]

Among those listed so far, seven have nitrogen in an aromatic ring:
SMILES	cell number change [%]	AC50 [1]	AC50 [2]
OC(c1ccccc1)c1nccn1Cc1ccccc1 (stereo unspecified)	-176		29.1 µM [falling, single point]
COc1cccc(NC(=O)CCc2nnc3ccc(NCc4ccco4)nn23)c1	-9.48		18.4 µM [falling, partial curve, poor fit]
CCCCN(C(=O)c1cc2ccccc2o1)c1c(N)n(CCCC)c(=O)[nH]c1=O	5.06		
Cc1cccc2c(=O)cc(C)n(CC(=O)N3CCOCC3)c12		1.46 µM [rising, single point]	5.8 µM [rising, single point]
O=C(CCc1nc2ccccc2c(=O)[nH]1)OCc1nnc(-c2ccccc2)o1	3.97		18.4 µM [rising, partial curve, poor fit]
CCC(C(=O)c1ccc2ncccc2c1)c1ccccc1 (stereo unspecified)	0.481		5.8 µM [falling, partial curve]
O=C(CC1SC(=Nc2ccccc2)N(Cc2ccccn2)C1=O)Nc1ccc(Br)cc1 (stereo unspecified)	-2.15		18.4 µM [falling, single point]

(listing goes on)

SMILES	cell number change [%]	AC50 [1]	AC50 [2]
COc1ccc(C(CNC(=O)Cc2cccs2)N(C)C)cc1 (stereo unspecified)	3.33		
CCCN(CCC)CCCOC(=O)c1ccc(Cl)cc1Cl	-30.3		
COc1cccc(CN2C(=O)CCC2(C)C(=O)NCCc2ccc(OC)c(OC)c2)c1 (stereo unspecified)	25.2		
CN(C)S(=O)(=O)c1cccc(NC(=O)c2cc3ccccc3o2)c1			0.461 µM [rising, full curve]
CNC(=O)c1nnsc1S(=O)(=O)c1ccc(Cl)cc1	-48.2	5.8 µM [falling, full curve]	
Cc1ccccc1NC(=O)CSc1nc2[nH]c(=O)cc(O)c2s1	122		29.1 µM [rising, single point]
Cc1ccc(NS(=O)(=O)c2ccc3[nH]c(=O)c(=O)[nH]c3c2)cc1Cl	4.37		14.6 µM [falling, partial curve]
COC(=O)/C(=N\Nc1ccc(Cl)cc1)Sc1nnc(-c2ccc(OC)cc2)n1C	74.6	9.2 µM [rising, partial curve]	2.06 µM [rising, full curve, poor fit]
COc1cccc(Nc2nc3ccc(C(=O)c4ccccc4)cc3n3cnnc23)c1	-12.6		29.1 µM [falling, single point]
CCCCN1C(=O)C(=O)N(CC(=O)NC2CCCc3ccccc32)C1=O (stereo unspecified)			0.103 µM [rising, single point]
Cc1c(C(=O)Nc2ccncc2)sc2nc(-c3ccc(F)cc3)cn12		1.84 µM [rising, partial curve]	1.64 µM [rising, partial curve]
Nc1nc(CN2CCN(c3ccccc3)CC2)nc(N2CCCc3ccccc32)n1	-0.128		
Cc1ccc(CNC(=O)c2cc(-c3ccccc3)nn2Cc2cc(C)no2)cc1	-17.4		10.3 µM [falling, partial curve]
O=C(O)c1ccccc1-c1nc2ccccc2n1-c1ccccc1	-20.4		25.9 µM [falling, partial curve]
COc1cc(C(=O)Nc2cc(-c3nc4cc(C)ccc4o3)ccc2C)cc(OC)c1OC	11.5		2.59 µM [rising, partial curve]
CN(C)C(=O)c1ccc(NC(=O)COC(=O)C2CCN(S(=O)(=O)c3ccc4c(c3)OCCO4)CC2)cc1	-2.81		
COc1ccc(C(=O)COC(=O)CCN2C(=O)C3C4CCC(C4)C3C2=O)cc1 (stereo unspecified)	-22.6		16.4 µM [falling, partial curve]
O=[N+]([O-])c1ccc(SCCO)nc1SCCO	-37.4	2.59 µM [falling, full curve]	2.91 µM [falling, full curve]
CC1(C)CC(=O)C(c2c[nH]c3ccccc23)C(=O)C1	31.3	32.6 µM [rising, single point]	
COc1ccc(/C=N/N2CCN(c3ccc(Cl)cc3)CC2)cc1O	8.4		23.1 µM [rising, single point]
